Test results taken from patent US9096534B2, “Pyridazinone compound and use thereof” (SUMITOMO CHEMICAL COMPANY, LIMITED, priority 2006, dated 2015).
Some of these results come from one statement about several compounds together.

What was measured:
Lolium multiflorum = test: Post-emergence treatment test in dry field; assay type: in vivo; conditions: foliar spray at first to second leaf stage, 20 days after treatment, 0 = no effect, 10 = complete death
Protocol: A plastic cup with a diameter of 8 cm and a depth of 6.5 cm was filled with commercially available soil, onto which seeds of Lolium multiflorum were sowed, covered with soil about 0.5 cm high and then grown in a greenhouse. When the plants were grown in first to second leaf stage, a prescribed dosage of a dilute liquid formulation comprising Compound I-a-1 was sprayed to whole plants uniformly. The dilute liquid formulation was prepared by dissolving a prescribed amount of Compound I-a-1 in a dimethylformamide solution (2%) of Tween 20 (polyoxyethylene sorbitan fatty acid ester, from MP Biomedicals, Inc.) and then diluting with deionized water. The plants after treatment with the liquid formulation were grown in a greenhouse and 20 days after the treatment, the efficacy of the compound against Lolium multiflorum was visually evaluated by rating in eleven levels from 0 to 10 (assigned as 0 for no effect and 10 for complete death while values falling in between these values were rated from 1 to 9 levels accordingly).
The other present compounds and Compound A described in J. Heterocycl. Chem., vol. 42, pp. 427-435 (2005) as a comparative example were similarly tested.

Apera spica-venti = test: Pre-emergence treatment test in dry field; assay type: in vivo; conditions: sprayed to soil surface after sowing, three weeks after treatment, 0 = no effect, 10 = complete death
Protocol: A plastic container (32 cm×22 cm×8 cm in height) was filled with soil sterilized by steam, onto which seeds of Apera spica-venti were sowed and covered with soil about 0.5 cm high. A prescribed dosage of a dilute liquid formulation comprising Compound I-a-1 was sprayed to the soil surface uniformly. The dilute liquid formulation was prepared by the method similar to that in Test example 1. The plants after treatment with the liquid formulation were grown in a greenhouse and three weeks after the treatment, the efficacy of the compound against Apera spica-venti was visually evaluated by rating in eleven levels from 0 to 10 similarly to Test example 1.
The other present compounds and Compound A as a comparative example were similarly tested.

CCc1ccccc1-c1c(O)cnn(C)c1=O [I-a-1, 4-(2-Ethylphenyl)-5-hydroxy-2-methyl-3(2H)-pyridazinone]
efficacy against Lolium multiflorum, visually evaluated by rating in eleven levels from 0 to 10 (Lolium multiflorum; 500 g/ha): ≥ 7 | efficacy against Apera spica-venti, visually evaluated by rating in eleven levels from 0 to 10 (Apera spica-venti; 500 g/ha): ≥ 8

CCc1ccccc1-c1c(O)cnn(CC)c1=O [I-a-2]
efficacy against Apera spica-venti, visually evaluated by rating in eleven levels from 0 to 10 (Apera spica-venti; 500 g/ha): ≥ 8

CCc1ccccc1-c1c(O)cnn(CCOC)c1=O [I-a-4]
efficacy against Apera spica-venti, visually evaluated by rating in eleven levels from 0 to 10 (Apera spica-venti; 500 g/ha): ≥ 8

CCCc1ccccc1-c1c(O)cnn(C)c1=O [I-a-5]
efficacy against Lolium multiflorum, visually evaluated by rating in eleven levels from 0 to 10 (Lolium multiflorum; 500 g/ha): ≥ 7 | efficacy against Apera spica-venti, visually evaluated by rating in eleven levels from 0 to 10 (Apera spica-venti; 500 g/ha): ≥ 8

Cc1cccc(C)c1-c1c(O)cnn(C)c1=O [I-a-6]
efficacy against Lolium multiflorum, visually evaluated by rating in eleven levels from 0 to 10 (Lolium multiflorum; 500 g/ha): ≥ 7 | efficacy against Apera spica-venti, visually evaluated by rating in eleven levels from 0 to 10 (Apera spica-venti; 500 g/ha): ≥ 8

CCc1cccc(C)c1-c1c(O)cnn(C)c1=O [I-a-7]
efficacy against Lolium multiflorum, visually evaluated by rating in eleven levels from 0 to 10 (Lolium multiflorum; 500 g/ha): ≥ 7

CCc1cccc(CC)c1-c1c(O)cnn(C)c1=O [I-a-8]
efficacy against Lolium multiflorum, visually evaluated by rating in eleven levels from 0 to 10 (Lolium multiflorum; 500 g/ha): ≥ 7 | efficacy against Apera spica-venti, visually evaluated by rating in eleven levels from 0 to 10 (Apera spica-venti; 500 g/ha): ≥ 8

Cc1ccc(-c2c(O)cnn(C)c2=O)c(C)c1 [I-a-9]
efficacy against Lolium multiflorum, visually evaluated by rating in eleven levels from 0 to 10 (Lolium multiflorum; 500 g/ha): ≥ 7 | efficacy against Apera spica-venti, visually evaluated by rating in eleven levels from 0 to 10 (Apera spica-venti; 500 g/ha): ≥ 8

Cc1cc(C)c(-c2c(O)cnn(C)c2=O)c(C)c1 [I-a-10]
efficacy against Apera spica-venti, visually evaluated by rating in eleven levels from 0 to 10 (Apera spica-venti; 500 g/ha): ≥ 8

CCc1cc(C)cc(CC)c1-c1c(O)cnn(C)c1=O [I-a-12]
efficacy against Lolium multiflorum, visually evaluated by rating in eleven levels from 0 to 10 (Lolium multiflorum; 500 g/ha): ≥ 7 | efficacy against Apera spica-venti, visually evaluated by rating in eleven levels from 0 to 10 (Apera spica-venti; 250 g/ha): ≥ 8

Cc1cc(C)c(-c2c(O)c(C)nn(C)c2=O)c(C)c1 [I-a-13]
efficacy against Lolium multiflorum, visually evaluated by rating in eleven levels from 0 to 10 (Lolium multiflorum; 250 g/ha): ≥ 7 | efficacy against Apera spica-venti, visually evaluated by rating in eleven levels from 0 to 10 (Apera spica-venti; 250 g/ha): ≥ 8

CCc1cc(C)cc(CC)c1-c1c(O)c(C)nn(C)c1=O [I-a-14, 4-(2,6-Diethyl-4-methylphenyl)-5-hydroxy-2,6-dimethyl-3(2H)-pyridazinone]
efficacy against Lolium multiflorum, visually evaluated by rating in eleven levels from 0 to 10 (Lolium multiflorum; 250 g/ha): ≥ 7 | efficacy against Apera spica-venti, visually evaluated by rating in eleven levels from 0 to 10 (Apera spica-venti; 250 g/ha): ≥ 8

CCc1ccccc1-c1c(O)c(C)nn(C)c1=O [I-a-15]
efficacy against Lolium multiflorum, visually evaluated by rating in eleven levels from 0 to 10 (Lolium multiflorum; 250 g/ha): ≥ 7 | efficacy against Apera spica-venti, visually evaluated by rating in eleven levels from 0 to 10 (Apera spica-venti; 250 g/ha): ≥ 8

CCc1cc(C)ccc1-c1c(O)c(C)nn(C)c1=O [I-a-16]
efficacy against Lolium multiflorum, visually evaluated by rating in eleven levels from 0 to 10 (Lolium multiflorum; 250 g/ha): ≥ 7 | efficacy against Apera spica-venti, visually evaluated by rating in eleven levels from 0 to 10 (Apera spica-venti; 250 g/ha): ≥ 8

CCc1cc(CC)c(-c2c(O)c(C)nn(C)c2=O)c(CC)c1 [I-a-17]
efficacy against Lolium multiflorum, visually evaluated by rating in eleven levels from 0 to 10 (Lolium multiflorum; 250 g/ha): ≥ 7 | efficacy against Apera spica-venti, visually evaluated by rating in eleven levels from 0 to 10 (Apera spica-venti; 250 g/ha): ≥ 8

CCc1cc(C)cc(C)c1-c1c(O)c(C)nn(C)c1=O [I-a-18]
efficacy against Lolium multiflorum, visually evaluated by rating in eleven levels from 0 to 10 (Lolium multiflorum; 250 g/ha): ≥ 7 | efficacy against Apera spica-venti, visually evaluated by rating in eleven levels from 0 to 10 (Apera spica-venti; 250 g/ha): ≥ 8

CCc1cc(C)cc(CC)c1-c1c(O)c(CC)nn(C)c1=O [I-a-19]
efficacy against Lolium multiflorum, visually evaluated by rating in eleven levels from 0 to 10 (Lolium multiflorum; 250 g/ha): ≥ 7 | efficacy against Apera spica-venti, visually evaluated by rating in eleven levels from 0 to 10 (Apera spica-venti; 250 g/ha): ≥ 8

CCc1cc(C)ccc1-c1c(O)c(CC)nn(C)c1=O [I-a-20]
efficacy against Lolium multiflorum, visually evaluated by rating in eleven levels from 0 to 10 (Lolium multiflorum; 250 g/ha): ≥ 7 | efficacy against Apera spica-venti, visually evaluated by rating in eleven levels from 0 to 10 (Apera spica-venti; 250 g/ha): ≥ 8

CCc1cc(C)cc(C)c1-c1c(O)c(CC)nn(C)c1=O [I-a-21]
efficacy against Lolium multiflorum, visually evaluated by rating in eleven levels from 0 to 10 (Lolium multiflorum; 250 g/ha): ≥ 7 | efficacy against Apera spica-venti, visually evaluated by rating in eleven levels from 0 to 10 (Apera spica-venti; 250 g/ha): ≥ 8

CCc1nn(C)c(=O)c(-c2c(C)cc(C)cc2C)c1O [I-a-22]
efficacy against Lolium multiflorum, visually evaluated by rating in eleven levels from 0 to 10 (Lolium multiflorum; 250 g/ha): ≥ 7 | efficacy against Apera spica-venti, visually evaluated by rating in eleven levels from 0 to 10 (Apera spica-venti; 250 g/ha): ≥ 8

CCc1cc(C)cc(CC)c1-c1c(O)c(C(C)C)nn(C)c1=O [I-a-23]
efficacy against Apera spica-venti, visually evaluated by rating in eleven levels from 0 to 10 (Apera spica-venti; 250 g/ha): ≥ 8

CCc1ccc(-c2c(O)c(C)nn(C)c2=O)c(CC)c1 [I-a-27]
efficacy against Lolium multiflorum, visually evaluated by rating in eleven levels from 0 to 10 (Lolium multiflorum; 250 g/ha): ≥ 7

CCc1ccccc1-c1c(OC(=O)c2ccccc2)cnn(C)c1=O [I-b-1, 5-Benzoyloxy-4-(2-ethylphenyl)-2-methyl-3(2H)-pyridazinone]
efficacy against Lolium multiflorum, visually evaluated by rating in eleven levels from 0 to 10 (Lolium multiflorum; 500 g/ha): ≥ 7 | efficacy against Apera spica-venti, visually evaluated by rating in eleven levels from 0 to 10 (Apera spica-venti; 500 g/ha): ≥ 8

CCc1ccccc1-c1c(OC(C)=O)cnn(C)c1=O [I-b-2]
efficacy against Lolium multiflorum, visually evaluated by rating in eleven levels from 0 to 10 (Lolium multiflorum; 500 g/ha): ≥ 7

CCc1ccccc1-c1c(OC(=O)C(C)C)cnn(C)c1=O [I-b-4]
efficacy against Lolium multiflorum, visually evaluated by rating in eleven levels from 0 to 10 (Lolium multiflorum; 500 g/ha): ≥ 7

CCc1ccccc1-c1c(OC(=O)C(C)(C)C)cnn(C)c1=O [I-b-5]
efficacy against Lolium multiflorum, visually evaluated by rating in eleven levels from 0 to 10 (Lolium multiflorum; 500 g/ha): ≥ 7 | efficacy against Apera spica-venti, visually evaluated by rating in eleven levels from 0 to 10 (Apera spica-venti; 500 g/ha): ≥ 8

CCc1ccccc1-c1c(OC(=O)C2CCCCC2)cnn(C)c1=O [I-b-6]
efficacy against Apera spica-venti, visually evaluated by rating in eleven levels from 0 to 10 (Apera spica-venti; 500 g/ha): ≥ 8

CCc1ccccc1-c1c(OC(=O)OC)cnn(C)c1=O [I-b-7]
efficacy against Lolium multiflorum, visually evaluated by rating in eleven levels from 0 to 10 (Lolium multiflorum; 500 g/ha): ≥ 7 | efficacy against Apera spica-venti, visually evaluated by rating in eleven levels from 0 to 10 (Apera spica-venti; 500 g/ha): ≥ 8

CCCc1ccccc1-c1c(OC(C)=O)cnn(C)c1=O [I-b-10]
efficacy against Lolium multiflorum, visually evaluated by rating in eleven levels from 0 to 10 (Lolium multiflorum; 500 g/ha): ≥ 7

Cc1cc(C)c(-c2c(OC(=O)C(C)(C)C)cnn(C)c2=O)c(C)c1 [I-b-11]
efficacy against Lolium multiflorum, visually evaluated by rating in eleven levels from 0 to 10 (Lolium multiflorum; 500 g/ha): ≥ 7 | efficacy against Apera spica-venti, visually evaluated by rating in eleven levels from 0 to 10 (Apera spica-venti; 500 g/ha): ≥ 8

CCc1cc(C)cc(CC)c1-c1c(OC(C)=O)cnn(C)c1=O [I-b-12]
efficacy against Lolium multiflorum, visually evaluated by rating in eleven levels from 0 to 10 (Lolium multiflorum; 250 g/ha): ≥ 7

CC(=O)Oc1c(C)nn(C)c(=O)c1-c1c(C)cc(C)cc1C [I-b-13]
efficacy against Lolium multiflorum, visually evaluated by rating in eleven levels from 0 to 10 (Lolium multiflorum; 250 g/ha): ≥ 7 | efficacy against Apera spica-venti, visually evaluated by rating in eleven levels from 0 to 10 (Apera spica-venti; 250 g/ha): ≥ 8

CCc1cc(C)cc(CC)c1-c1c(OC(C)=O)c(C)nn(C)c1=O [I-b-14]
efficacy against Lolium multiflorum, visually evaluated by rating in eleven levels from 0 to 10 (Lolium multiflorum; 250 g/ha): ≥ 7 | efficacy against Apera spica-venti, visually evaluated by rating in eleven levels from 0 to 10 (Apera spica-venti; 250 g/ha): ≥ 8

CCc1ccccc1-c1c(OC(C)=O)c(C)nn(C)c1=O [I-b-16]
efficacy against Lolium multiflorum, visually evaluated by rating in eleven levels from 0 to 10 (Lolium multiflorum; 250 g/ha): ≥ 7 | efficacy against Apera spica-venti, visually evaluated by rating in eleven levels from 0 to 10 (Apera spica-venti; 250 g/ha): ≥ 8

CCc1ccccc1-c1c(OC(=O)C(C)(C)C)c(C)nn(C)c1=O [I-b-17]
efficacy against Lolium multiflorum, visually evaluated by rating in eleven levels from 0 to 10 (Lolium multiflorum; 250 g/ha): ≥ 7

CCOC(=O)Oc1c(C)nn(C)c(=O)c1-c1c(CC)cc(C)cc1CC [I-b-18]
efficacy against Lolium multiflorum, visually evaluated by rating in eleven levels from 0 to 10 (Lolium multiflorum; 250 g/ha): ≥ 7 | efficacy against Apera spica-venti, visually evaluated by rating in eleven levels from 0 to 10 (Apera spica-venti; 250 g/ha): ≥ 8

CCc1cc(C)cc(CC)c1-c1c(OC(=O)c2ccccc2)c(C)nn(C)c1=O [I-b-19]
efficacy against Apera spica-venti, visually evaluated by rating in eleven levels from 0 to 10 (Apera spica-venti; 250 g/ha): ≥ 8

CCc1cc(C)ccc1-c1c(OC(C)=O)c(C)nn(C)c1=O [I-b-20]
efficacy against Lolium multiflorum, visually evaluated by rating in eleven levels from 0 to 10 (Lolium multiflorum; 250 g/ha): ≥ 7 | efficacy against Apera spica-venti, visually evaluated by rating in eleven levels from 0 to 10 (Apera spica-venti; 250 g/ha): ≥ 8

CCc1cc(CC)c(-c2c(OC(C)=O)c(C)nn(C)c2=O)c(CC)c1 [I-b-21]
efficacy against Lolium multiflorum, visually evaluated by rating in eleven levels from 0 to 10 (Lolium multiflorum; 250 g/ha): ≥ 7 | efficacy against Apera spica-venti, visually evaluated by rating in eleven levels from 0 to 10 (Apera spica-venti; 250 g/ha): ≥ 8

CCc1cc(C)cc(C)c1-c1c(OC(C)=O)c(C)nn(C)c1=O [I-b-22]
efficacy against Lolium multiflorum, visually evaluated by rating in eleven levels from 0 to 10 (Lolium multiflorum; 250 g/ha): ≥ 7 | efficacy against Apera spica-venti, visually evaluated by rating in eleven levels from 0 to 10 (Apera spica-venti; 250 g/ha): ≥ 8

CCC(=O)Oc1c(C)nn(C)c(=O)c1-c1c(CC)cc(C)cc1CC [I-b-23]
efficacy against Lolium multiflorum, visually evaluated by rating in eleven levels from 0 to 10 (Lolium multiflorum; 250 g/ha): ≥ 7 | efficacy against Apera spica-venti, visually evaluated by rating in eleven levels from 0 to 10 (Apera spica-venti; 250 g/ha): ≥ 8

CCc1cc(C)cc(CC)c1-c1c(OC(=O)OC)c(C)nn(C)c1=O [I-b-25]
efficacy against Lolium multiflorum, visually evaluated by rating in eleven levels from 0 to 10 (Lolium multiflorum; 250 g/ha): ≥ 7
